# Test results from PubChem BioAssay AID493014 (National Center for Advancing Translational Sciences (NCATS), 2011).
# About 170 (0.05%) of roughly 340,000 compounds were called active. The shares of active, inactive and inconclusive entries below differ from those in the screen. The call rests on the fitted dose curve; in most records, active means well fitted inhibition curve with a large enough effect in the signal ratio, with a control signal flat (not every such curve was filed as active); inconclusive means small, poorly fitted or top-dose-only effect, or effect the other way, or a change in a side signal; inactive means flat fitted curve, though single readings scatter; the % refers to the signal ratio. Potencies beside an inconclusive call are fits to weak or partial responses and may not hold up.
# Test: qHTS Assay to Find Inhibitors of Chronic Active B-Cell Receptor Signaling;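 on activity change, negative = inhibition: plate controls were basal doxycycline-induced cells for no effect and cells given 10 µM MG132 for full effect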
# Conditions: ABC-DLBCL IkBa-CBG/CBR reporter, luminescence ratio (green luciferase fused to IkBa over red control in TMD8 lymphoma cells), 4 h; activity change, negative = inhibition: at 46.1 µM (top of the series) unless noted
# Outline: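 Doxycycline induced both beetle luciferases in TMD8 lymphoma cells; IKK-driven degradation limits the IkappaBalpha-fused green signal, while red luminescence normalises for cell number and nonspecific effects. Compounds tested up to 46 uM, 4 hrs.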
# Potency means the concentration at half of the fitted maximal effect.
Structure (SMILES),"activity change, negative = inhibition",Potency
Cc1onc(-c2c(F)cccc2Cl)c1C(=O)OCC(=O)NC1CC1,inconclusive: 1.64%,–
CCc1nc(N)c(C#N)c(-c2ccncc2)c1C,inconclusive: 9.5%,–
CCc1cc(=O)oc2c(C)c(OCC(=O)N3CCCc4ccccc43)ccc12,inconclusive: 12.1%,–
CCOc1ccc(NC(=O)c2cc3ccccc3cc2O)cc1,–,"inconclusive: 35.5 µM [falling, single point]"
Cc1cc(NC(=O)CSc2nc3cc4c(cc3c(=O)n2CCc2ccccc2)OCO4)no1,inconclusive: 7.65%,–
COCC(=O)N1CCC(Oc2ccc(C(=O)NC(C)c3nc(C)sc3C)cc2)CC1 (stereo unspecified),inactive: 0.386%,–
CCn1c(=O)cc(OCC(=O)NCCc2ccc(OC)c(OC)c2)c2ccccc21,–,"inconclusive: 35.5 µM [falling, partial curve, poor fit]"
Nc1c(C(=O)Nc2ccccc2)nnn1-c1ccc2c(c1)OCCO2,–,"inconclusive: 31.6 µM [rising, single point]"
O=C(Nc1ccc(S(=O)(=O)N2CCCC2)cc1)c1ccc(CN2CCOCC2)cc1,inactive: -6.84%,–
Cc1c(C(=O)N2CCC(C)CC2)oc2ccc3c(c12)C(O)CC1(CCCCC1)O3 (stereo unspecified),inactive: 2.66%,–
COc1ccc(C(=O)N/N=C(\C)CC(=O)Nc2cccc(C(F)(F)F)c2)cc1,inconclusive: -21.7%,–
N#CC(c1ccc(Cl)cc1)c1ccc2c(C(F)(F)F)cc(C(F)(F)F)nc2n1 (stereo unspecified),inconclusive: 5.14%,–
COc1cccc(-c2ccc3ncnc(NCc4cccc(F)c4)c3c2)c1,inconclusive: -27.8%,–
CCC(=O)NC(=S)Nc1ccc(OC)cc1OC,–,"inconclusive: 32.6 µM [falling, partial curve, poor fit]"
CC(C)n1cnc2c(Nc3cccc(Cl)c3)nc(NCCCO)nc21,inconclusive: 9.59%,–
CCOC(=O)Cc1csc2nc(-c3ccccc3)nn12,–,"inconclusive: 3.98 µM [activator, partial curve]"
O=[N+]([O-])c1ccc(-c2nn(-c3ccccc3)cc2/C=N/n2c(-c3ccncc3)n[nH]c2=S)cc1,inconclusive: -3.84%,–
COc1ccc(NS(=O)(=O)c2ccc3nc(COc4ccc(Cl)c(C)c4)[nH]c3c2)cc1,inactive: -15.2%,–
CCOc1ccc(NC(=O)C2C(c3ccccc3)C2(Cl)Cl)cc1 (stereo unspecified),inconclusive: -15.9%,–
COc1ccc(N2CCN(C(=S)Nc3cc(C)ccc3C)CC2)cc1,inactive: 1.57%,–
Cc1ccc(CCNC(=O)c2cc(S(=O)(=O)N3CCCCC3)c[nH]2)cc1,inconclusive: -8.09%,–

# In a second layout: entries from further up
Structure (SMILES)	activity change, negative = inhibition	Potency
CCOc1ccc(NC(=O)C2C(c3ccccc3)C2(Cl)Cl)cc1 (stereo unspecified)	inconclusive: -15.9%	–
COc1ccc(N2CCN(C(=S)Nc3cc(C)ccc3C)CC2)cc1	inactive: 1.57%	–

# (list continues)

Structure (SMILES),"activity change, negative = inhibition",Potency
NS(=O)(=O)c1ccc(CCNC(=O)c2cc(-c3ccc(Br)cc3)nc3ccccc23)cc1,inconclusive: -1.4%,–
COc1cccc(C(=O)c2c[nH]c(C(=O)NCc3cccs3)c2)c1,inconclusive: -14.5%,–
O=C(c1ccc(F)cc1)c1ccc(N2CCCCC2)cc1,inconclusive: 0.846%,–
CC1(C)CC(N=c2cc(-c3ccccc3)oc3ccc(Cl)cc23)CC(C)(C)N1,–,"inconclusive: 2.82 µM [rising, partial curve, poor fit]"
CC(NC(=O)Cn1cccc1C(=O)c1ccccc1)c1ccc2c(c1)OCCO2 (stereo unspecified),–,"inconclusive: 2.82 µM [falling, partial curve, poor fit]"
C=CCNC(=O)CSc1nc2sc(C)c(C)c2c(=O)[nH]1,inconclusive: 0.939%,–
COc1ccc(CNc2ccc3c(c2)ncn3C)cc1OC,inactive: -5.73%,–
c1csc(-c2nc(NCC3CCCO3)c3ccccc3n2)c1 (stereo unspecified),inconclusive: 9.9%,–
COc1ccccc1CNC(=O)CSc1ccc(Br)cc1,inconclusive: -19.2%,–
COc1cc(C(=O)NNC(=O)C2CCC2)cc(OC)c1OC,inactive: -9.98%,–
Clc1cccc(-c2nc3nc4ccccc4nc3n2Cc2ccco2)c1,–,"inconclusive: 16.4 µM [falling, partial curve]"
CC(=O)Nc1ccc(OCC(O)Cn2c(C(C)C)nc3ccccc32)cc1 (stereo unspecified),inconclusive: 1.7%,–
CC(=O)Nc1ccc(NC(=O)C(C)OC(=O)/C(C#N)=C/c2ccc(N(C)C)cc2)cc1 (stereo unspecified),inconclusive: 12.2%,–
COc1ccc(C(C[N+](=O)[O-])c2c(C)cc3ccccn23)c(OC)c1 (stereo unspecified),inconclusive: 1.81%,–
O=c1[nH]c2cc3c(cc2cc1C(c1nnnn1C1CCCCC1)N1CCSCC1)OCCO3 (stereo unspecified),inactive: -4.12%,–
C=CCNC(=S)N/N=C/c1cccc([N+](=O)[O-])c1,–,"inconclusive: 35.5 µM [falling, single point]"
Cc1[nH]c2ccccc2c1CCN(Cc1cccnc1)C(=S)Nc1cccc(F)c1,inconclusive: -9.59%,–
O=C(COc1cccc2ccccc12)Nc1ccc(Cl)cc1C(=O)O,–,"inconclusive: 14.1 µM [falling, partial curve]"
O=C(COC(=O)[C@@H]1CCCN1C(=O)c1cccs1)Nc1ccc(F)cc1[N+](=O)[O-],inactive: 4.5%,–
Cc1cccc(N2C(=O)c3ccc(Br)cc3C2=O)n1,inactive: 1.65%,–
Cc1sc(NC(=O)CSc2nnnn2C2CCCCC2)c(C#N)c1C,inactive: 5.44%,–

Structure (SMILES),"activity change, negative = inhibition",Potency
COc1ccc(/C=C/C(=O)Oc2ccc(C)c(C)c2)cc1OC,inconclusive: 4.49%,–
CCOC(=O)c1sc(N(Cc2ccccc2)C(=O)CSc2ncn[nH]2)nc1C,–,"inconclusive: 29.1 µM [falling, single point]"
O=C(NCc1ccccc1)NC1(C(=O)Nc2ccc3c(c2)OCCO3)CCCCC1,inconclusive: 7.77%,–
COc1ccc(NC(=O)Cn2nnc(-c3ccc(CN4CCOCC4)cc3)n2)c(OC)c1,inconclusive: -1.09%,–
c1cc(-c2cccs2)nc(-c2cccs2)c1,inconclusive: 4.08%,–
COc1ccc(NC(=O)/C=C/c2ccccc2)c([N+](=O)[O-])c1,–,"inconclusive: 32.6 µM [falling, partial curve, poor fit]"
O=C(/C=C/c1ccco1)Nc1sc2c(c1C(=O)O)CCC2,inconclusive: 310%,–
Cc1ccc(C)n1-c1ccc(C(=O)Nc2ccccc2F)cc1,–,"inconclusive: 14.1 µM [falling, partial curve]"
CCOC(=O)C1CCCN(c2cc(C)nc3cc(-c4ccc(Cl)cc4)nn23)C1 (stereo unspecified),inconclusive: 0.442%,–
Cc1ccc(C)c(NC(=O)CSc2nnc(NC(=O)C3CC3)s2)c1,inconclusive: 2.38%,–
O=C(Oc1cccc(OC(=O)c2ccco2)c1)c1ccco1,inactive: 3.23%,–
CCOC(=O)N1CCC(NC(=O)c2cn(-c3ccc(OC)cc3)c(=O)c3ccccc23)CC1,inconclusive: -2.15%,–
O=c1oc2ccccc2c(O)c1C=NCc1ccccn1,–,"inconclusive: 18.4 µM [falling, partial curve]"
Cc1cc(C)c(C(=O)/C=C/c2cccc3ccccc23)c(=O)[nH]1,–,"inconclusive: 4.61 µM [falling, single point]"
COc1ccc2c(c1)CCC1C2=NN(/C(C)=C\C(C)=O)C1c1ccc(F)cc1 (stereo unspecified),inconclusive: -20.8%,–
CCCSc1nc(-c2ccccc2)cc(C(F)(F)F)c1C#N,inconclusive: -46.8%,–
COCCN=c1scc(-c2cc(OC)c(OC)c(OC)c2)n1/N=C/c1c(C)[nH]c2ccccc12,inactive: -15%,–
O=C1CC(c2ccccc2)=Nc2ccccc2N1,inactive: -5.28%,–
COc1cc(NC(=O)CSc2nc3ccccc3c(=O)n2C)ccc1NC(=O)c1ccco1,–,"inconclusive: 22.4 µM [falling, single point]"
COc1ccc(NS(=O)(=O)c2cc(NC(=O)CCNC(C)=O)ccc2N2CCOCC2)cc1,inconclusive: 1.17%,–
Nc1ccc(-c2nc3c(Cl)cc(N)cc3[nH]2)cc1,inconclusive: -13.2%,–

# Arranged by length of the SMILES (rising): 3 of the compounds above.
Structure (SMILES),"activity change, negative = inhibition",Potency
O=C(Oc1cccc(OC(=O)c2ccco2)c1)c1ccco1,inactive: 3.23%,–
Cc1ccc(C)c(NC(=O)CSc2nnc(NC(=O)C3CC3)s2)c1,inconclusive: 2.38%,–
COc1ccc(NS(=O)(=O)c2cc(NC(=O)CCNC(C)=O)ccc2N2CCOCC2)cc1,inconclusive: 1.17%,–

# Next part

Structure (SMILES),"activity change, negative = inhibition",Potency
CC(C)Cc1ccc(/C=C/C(=O)N2CCCCC2)cc1,–,"inconclusive: 2.82 µM [rising, partial curve, poor fit]"
O=c1[nH]c(CN2CCN(S(=O)(=O)c3ccc4c(c3)OCCO4)CC2)nc2sc3c(c12)CCCC3,inconclusive: 2.19%,–
COc1cccc(CNc2ncnc3cc(OC)c(OC)cc23)c1,inactive: -10.6%,–
CC(C)NC(=O)c1ccc2c(c1)S(=O)(=O)c1ccccc1C2=O,inconclusive: -1.79%,–
CN1CCC(N(C)C(=O)c2cc(-c3ccccc3Cl)nc3ccccc23)CC1,inconclusive: -0.605%,–
COc1ccccc1CN1C[C@@H]2C[C@@H](c3[nH]c4c(C)cccc4c3C)N3CCC[C@@]23C1=O,inconclusive: -9.64%,–
O=C(Nc1cccc2ccccc12)c1ccc([N+](=O)[O-])s1,inconclusive: -9.23%,–
COC(=O)c1sccc1NC(=O)CSCCc1ccncc1,–,"inconclusive: 8.91 µM [falling, partial curve, poor fit]"
O=S(=O)(Cc1ccc(Cl)cc1)C1CCCCC1O (stereo unspecified),inconclusive: 9.85%,–
O=C(Nc1ccc(F)cc1)c1ccc(S(=O)(=O)N2CCOCC2)o1,–,"inconclusive: 12.6 µM [falling, partial curve]"
COc1ccc(-c2nc(CN3CCCCC3c3nccn3C)c(C)o2)c(C)c1C (stereo unspecified),–,"inconclusive: 35.5 µM [rising, single point]"
CCOc1ccc2nc(N3CCCC(C(=O)N4CCN(CC)CC4)C3)sc2c1 (stereo unspecified),inactive: -0.413%,–
COc1ccc(NC(=S)NCCc2ccc(F)cc2)c(OC)c1,inactive: -6.14%,–
COC(=O)C1=C(C)N=C2SC(C#N)=C(N)N2C1c1ccc(OC)cc1 (stereo unspecified),inactive: 0.183%,–
O=C(CSc1nnc2c(n1)[nH]c1ccccc12)Nc1nncs1,inconclusive: -1.73%,–
COc1ccc(C(C)NC(=O)c2ccncc2)cc1 (stereo unspecified),inactive: 2.06%,–
Cc1c(C(=O)Nc2nc3ccccc3[nH]2)oc2ccccc12,–,"inconclusive: 25.9 µM [cytotoxic, single point]"
O=C(Nc1ccc(N2CCN(C(=O)c3ccccc3F)CC2)cc1)c1cncc(Br)c1,inconclusive: -4.53%,–
